# Source: PubChem BioAssay AID1259308 (NCATS, 2017)
# Screen: 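Genes whose loss raises luciferase production in HEK293 cells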 (primary screen)
# Cell system: human HEK293 embryonic kidney cells stably expressing firefly luciferase (HEK-CMV-Luc2-Hygro)
# Knock-down reagent: single siRNA against human genes, 0.8 pmol siRNA per well
# Time to read-out: 72 h
# Measured: 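Reporter luminescence and viable-cell signal on separate replicate plates, given as percent of non-targeting control and median/MAD z-scores, plus per-cell luciferase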
# Direction: total luciferase, z-score and total luciferase, % of control: higher = more reporter protein produced; luciferase per cell, z-score: higher = more reporter output per viable cell
# Rule for the call: 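An siRNA counts as active if its total luciferase robust z-score exceeds 3; genes with two or more such siRNAs out of three were retested with fresh siRNAs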
# Calls: active = raised luciferase; inactive = no rise
# The deposit covers about 59,000 reagents; below is an unselected part. Over the whole deposit, about 1,510 (2.6%) got an active call. 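Calls use total luciferase alone and ignore viability, so some active siRNAs may act by altering cell number.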 The numbers tell different reagents against one gene apart. Further read-outs or replicates are left out here.
target gene,siRNA no.,"total luciferase, z-score","total luciferase, % of control","luciferase per cell, z-score",Outcome
S100A12,1,-0.699,68,0.00738,inactive
S100A12,2,0.624,94.3,0.561,inactive
S100A12,3,0.516,92.2,1.14,inactive
LOXL4,1,-1.3,56.1,-1.66,inactive
LOXL4,2,0.272,87.3,-0.319,inactive
LOXL4,3,-0.793,66.1,-1.44,inactive
SLX4,1,1.32,108,0.515,inactive
SLX4,2,1.17,105,0.621,inactive
SLX4,3,-1.24,57.2,-1.36,inactive
ISCA1,1,2.51,132,2.19,inactive
ISCA1,2,-1.27,56.6,-0.635,inactive
ISCA1,3,-1.74,47.2,-1.11,inactive
POLR2J,1,-1.22,57.6,-0.992,inactive
POLR2J,2,2.77,137,1.77,inactive
POLR2J,3,-0.19,78.1,-0.362,inactive
CAPN3,1,-0.312,75.7,-0.253,inactive
CAPN3,2,-3.15,19.2,-5.36,inactive
CAPN3,3,-0.651,68.9,-0.908,inactive
GARIN3,1,-1.8,46,-1.99,inactive
GARIN3,2,0.0878,83.6,1.12,inactive
GARIN3,3,0.221,86.3,0.336,inactive
KLC4,1,-1.64,49.3,0.68,inactive
KLC4,2,-0.164,78.6,-0.772,inactive
KLC4,3,-0.388,74.2,-0.187,inactive
TRAF7,1,0.383,89.5,0.791,inactive
TRAF7,2,-0.138,79.1,-0.499,inactive
TRAF7,3,-0.249,76.9,-1.01,inactive
CD48,1,-0.769,66.6,-0.214,inactive
CD48,2,-0.246,77,0.0901,inactive
CD48,3,-0.717,67.6,-0.487,inactive
S100A13,1,-1.72,47.8,-1.23,inactive
S100A13,2,-0.155,78.8,-0.697,inactive
S100A13,3,1.06,103,0.842,inactive
BRD10,1,-1.35,54.9,-1.28,inactive
BRD10,2,-0.9,64,0.131,inactive
BRD10,3,0.033,82.5,-0.234,inactive
DSC3,1,0.612,94.1,-0.0358,inactive
DSC3,2,3.76,157,2.51,active
DSC3,3,-0.0346,81.2,-0.0946,inactive
ANKRD30BP3,1,0.11,84.1,0.2,inactive
ANKRD30BP3,2,-0.193,78.1,0.0373,inactive
ANKRD30BP3,3,0.956,101,0.642,inactive
ESR1,1,0.157,85,-0.331,inactive
ESR1,2,1.66,115,0.744,inactive
ESR1,3,-0.816,65.7,-0.892,inactive
RIPPLY1,1,0.983,101,1.35,inactive
RIPPLY1,2,1.31,108,1.05,inactive
RIPPLY1,3,2.84,138,2.07,inactive
PPIE,1,-1.37,54.6,-1.25,inactive
PPIE,2,-0.0972,80,-0.66,inactive
PPIE,3,0.186,85.6,0.921,inactive
IRGQ,1,0.417,90.2,3.63,inactive
IRGQ,2,-1.85,45.2,-1.41,inactive
IRGQ,3,-1.53,51.5,-0.29,inactive
NEU3,1,0.584,93.5,0.406,inactive
NEU3,2,-0.533,71.3,0.865,inactive
NEU3,3,1.34,109,1.96,inactive
TPH2,1,0.071,83.3,1.51,inactive
TPH2,2,-0.482,72.3,-0.283,inactive
TPH2,3,3.4,149,2.92,active
GIMAP4,1,2.78,137,1.99,inactive
GIMAP4,2,-1.04,61.1,-1.38,inactive
GIMAP4,3,-0.404,73.9,-0.596,inactive
MC3R,1,-0.993,62.1,0.786,inactive
MC3R,2,1.32,108,1.02,inactive
MC3R,3,2.95,141,1.63,inactive
FZD4,1,2.56,133,2.58,inactive
FZD4,2,-0.483,72.3,0.232,inactive
FZD4,3,-0.325,75.4,-0.782,inactive
FXYD7,1,0.0834,83.5,-0.0487,inactive
FXYD7,2,-0.323,75.5,-0.286,inactive
FXYD7,3,1.44,110,0.481,inactive
MRPS23,1,0.951,101,2.58,inactive
MRPS23,2,1.22,106,0.726,inactive
MRPS23,3,-0.321,75.5,-1.06,inactive

Reprinted from the entries so far (4 entries):
target gene,siRNA no.,"total luciferase, z-score","total luciferase, % of control","luciferase per cell, z-score",Outcome
CAPN3,3,-0.651,68.9,-0.908,inactive
GARIN3,1,-1.8,46,-1.99,inactive
GARIN3,2,0.0878,83.6,1.12,inactive
GARIN3,3,0.221,86.3,0.336,inactive
